Measured values: the supplement of paper PMC8728848
The other results are listed elsewhere or left out.

Columns and labels:
Experiment in all cases: glycan array binding signal (z-score within array); higher = stronger binding
Details in all cases: glycan notation: IUPAC condensed, linker removed
[1] = biological target: Gal(b1-3)GlcNAc(b1-6)[Gal(b1-3)]GalNAc
In short: (§1)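 The binding signal is a Z-score computed within each array. Data were drawn from 3228 arrays in the Consortium for Functional Glycomics database, restricted to those with a known protein sequence. Scores were averaged over arrays of the same protein sequence at different concentrations or buffers, and over linkers, and negative values can be taken as non-binding.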

Gal(b1-3)GlcNAc6S = biological target: Gal(b1-3)GlcNAc6S
In short: as §1

[2] = biological target: Gal(b1-3)[Fuc(a1-4)]GlcNAc
In short: as §1

[3] = biological target: Gal(b1-3)[Fuc(a1-4)]GlcNAc(b1-2)Man
In short: as §1

[4] = biological target: Gal(b1-3)[Fuc(a1-4)]GlcNAc(b1-2)Man(a1-3)[Gal(b1-3)[Fuc(a1-4)]GlcNAc(b1-2)Man(a1-6)]Man(b1-4)GlcNAc(b1-4)[Fuc(a1-6)]GlcNAc
In short: as §1

[5] = biological target: Gal(b1-3)[Fuc(a1-4)]GlcNAc(b1-3)Gal(b1-3)[Fuc(a1-4)]GlcNAc
In short: as §1

[6] = biological target: Gal(b1-3)[Fuc(a1-4)]GlcNAc(b1-3)Gal(b1-4)[Fuc(a1-3)]GlcNAc
In short: as §1

[7] = biological target: Gal(b1-3)[Fuc(a1-4)]GlcNAc(b1-6)GalNAc
In short: as §1

[8] = biological target: Gal(b1-3)[GlcNAc(b1-6)]GalNAc
In short: as §1

[9] = biological target: Gal(b1-3)[Neu5Ac(a2-6)]GalNAc
In short: as §1

[10] = biological target: Gal(b1-3)[Neu5Ac(a2-6)]GlcNAc(b1-4)Gal(b1-4)Glc
In short: as §1

[11] = biological target: Gal(b1-3)[Neu5Ac(b2-6)]GalNAc
In short: as §1

Gal(b1-4)Gal = biological target: Gal(b1-4)Gal
In short: as §1

[12] = biological target: Gal(b1-4)GalNAc(a1-3)[Fuc(a1-2)]Gal(b1-4)GlcNAc
In short: as §1

[13] = biological target: Gal(b1-4)GalNAc(b1-3)[Fuc(a1-2)]Gal(b1-4)GlcNAc
In short: as §1

Gal(b1-4)Glc = biological target: Gal(b1-4)Glc
In short: as §1

Gal(b1-4)Glc6S = biological target: Gal(b1-4)Glc6S
In short: as §1

Gal(b1-4)GlcNAc = biological target: Gal(b1-4)GlcNAc
In short: as §1

[14] = biological target: Gal(b1-4)GlcNAc(a1-6)Gal(b1-4)GlcNAc
In short: as §1

Gal(b1-4)GlcNAc(b1-2)Man = biological target: Gal(b1-4)GlcNAc(b1-2)Man
In short: as §1

[15] = biological target: Gal(b1-4)GlcNAc(b1-2)Man(a1-3)Man(b1-4)GlcNAc(b1-4)GlcNAc
In short: as §1

[16] = biological target: Gal(b1-4)GlcNAc(b1-2)Man(a1-3)[Gal(b1-4)GlcNAc(b1-2)Man(a1-6)]Man(b1-4)GlcNAc(b1-4)GlcNAc
In short: as §1

[17] = biological target: Gal(b1-4)GlcNAc(b1-2)Man(a1-3)[Gal(b1-4)GlcNAc(b1-2)Man(a1-6)]Man(b1-4)GlcNAc(b1-4)[Fuc(a1-6)]GlcNAc
In short: as §1

[18] = biological target: Gal(b1-4)GlcNAc(b1-2)Man(a1-3)[Gal(b1-4)GlcNAc(b1-2)Man(a1-6)][Gal(b1-4)GlcNAc(b1-4)]Man(b1-4)GlcNAc(b1-4)[Fuc(a1-6)]GlcNAc
In short: as §1

[19] = biological target: Gal(b1-4)GlcNAc(b1-2)Man(a1-3)[Gal(b1-4)GlcNAc(b1-2)Man(a1-6)][GlcNAc(b1-4)]Man(b1-4)GlcNAc(b1-4)[Fuc(a1-6)]GlcNAc
In short: as §1

[20] = biological target: Gal(b1-4)GlcNAc(b1-2)Man(a1-3)[GlcNAc(b1-2)Man(a1-6)]Man(b1-4)GlcNAc(b1-4)GlcNAc
In short: as §1

[21] = biological target: Gal(b1-4)GlcNAc(b1-2)Man(a1-3)[GlcNAc(b1-4)][Gal(b1-4)GlcNAc(b1-2)Man(a1-6)]Man(b1-4)GlcNAc(b1-4)GlcNAc
In short: as §1

[22] = biological target: Gal(b1-4)GlcNAc(b1-2)Man(a1-3)[Man(a1-6)]Man(b1-4)GlcNAc(b1-4)GlcNAc
In short: as §1

[23] = biological target: Gal(b1-4)GlcNAc(b1-2)Man(a1-6)Man(b1-4)GlcNAc(b1-4)GlcNAc
In short: as §1

[24] = biological target: Gal(b1-4)GlcNAc(b1-2)Man(a1-6)[GlcNAc(b1-2)Man(a1-3)]Man(b1-4)GlcNAc(b1-4)GlcNAc
In short: as §1

[25] = biological target: Gal(b1-4)GlcNAc(b1-2)Man(a1-6)[Man(a1-3)]Man(b1-4)GlcNAc(b1-4)GlcNAc
In short: as §1

[26] = biological target: Gal(b1-4)GlcNAc(b1-2)[Gal(b1-4)GlcNAc(b1-4)]Man(a1-3)[Gal(b1-4)GlcNAc(b1-2)Man(a1-6)]Man(b1-4)GlcNAc(b1-4)GlcNAc
In short: as §1

[27] = biological target: Gal(b1-4)GlcNAc(b1-2)[Gal(b1-4)GlcNAc(b1-4)]Man(a1-3)[Gal(b1-4)GlcNAc(b1-2)[Gal(b1-4)GlcNAc(b1-6)]Man(a1-6)]Man(b1-4)GlcNAc(b1-4)GlcNAc
In short: as §1

[28] = biological target: Gal(b1-4)GlcNAc(b1-2)[Gal(b1-4)GlcNAc(b1-4)]Man(a1-3)[GlcNAc(b1-4)][Gal(b1-4)GlcNAc(b1-2)Man(a1-6)]Man(b1-4)GlcNAc(b1-4)GlcNAc
In short: as §1

[29] = biological target: Gal(b1-4)GlcNAc(b1-2)[Gal(b1-4)GlcNAc(b1-4)]Man(a1-3)[GlcNAc(b1-4)][Gal(b1-4)GlcNAc(b1-2)[Gal(b1-4)GlcNAc(b1-6)]Man(a1-6)]Man(b1-4)GlcNAc(b1-4)GlcNAc
In short: as §1

[30] = biological target: Gal(b1-4)GlcNAc(b1-2)[Gal(b1-4)GlcNAc(b1-6)]Man(a1-6)[Gal(b1-4)GlcNAc(b1-2)Man(a1-3)]Man(b1-4)GlcNAc(b1-4)GlcNAc
In short: as §1

[31] = biological target: Gal(b1-4)GlcNAc(b1-2)[Gal(b1-4)GlcNAc(b1-6)]Man(a1-6)[Gal(b1-4)GlcNAc(b1-2)Man(a1-3)]Man(b1-4)GlcNAc(b1-4)[Fuc(a1-6)]GlcNAc
In short: as §1

[32] = biological target: Gal(b1-4)GlcNAc(b1-2)[Gal(b1-4)GlcNAc(b1-6)]Man(a1-6)[GlcNAc(b1-4)][Gal(b1-4)GlcNAc(b1-2)Man(a1-3)]Man(b1-4)GlcNAc(b1-4)GlcNAc
In short: as §1

[33] = biological target: Gal(b1-4)GlcNAc(b1-2)[Gal(b1-4)GlcNAc(b1-6)]Man(a1-6)[GlcNAc(b1-4)][Gal(b1-4)GlcNAc(b1-2)[Gal(b1-4)GlcNAc(b1-4)]Man(a1-3)]Man(b1-4)GlcNAc(b1-4)[Fuc(a1-6)]GlcNAc
In short: as §1

[34] = biological target: Gal(b1-4)GlcNAc(b1-3)Gal(b1-3)GalNAc
In short: as §1

[35] = biological target: Gal(b1-4)GlcNAc(b1-3)Gal(b1-3)GlcNAc
In short: as §1

[36] = biological target: Gal(b1-4)GlcNAc(b1-3)Gal(b1-4)Glc
In short: as §1

[37] = biological target: Gal(b1-4)GlcNAc(b1-3)Gal(b1-4)GlcNAc
In short: as §1

[38] = biological target: Gal(b1-4)GlcNAc(b1-3)Gal(b1-4)GlcNAc(b1-2)Man(a1-3)[Gal(b1-4)GlcNAc(b1-3)Gal(b1-4)GlcNAc(b1-2)Man(a1-6)]Man(b1-4)GlcNAc(b1-4)GlcNAc
In short: as §1

[39] = biological target: Gal(b1-4)GlcNAc(b1-3)Gal(b1-4)GlcNAc(b1-2)Man(a1-3)[Gal(b1-4)GlcNAc(b1-3)Gal(b1-4)GlcNAc(b1-2)Man(a1-6)]Man(b1-4)GlcNAc(b1-4)[Fuc(a1-6)]GlcNAc
In short: as §1

B1: EUL D1A second (Oryza sativa) (protein)
chain: GAATACTIGGVPVHTVRVFSAAGEDYCLTVRNGTACLAPKNPRDDYQHWIKDMRHSNKIRDEEGYPAFALVNKVTGEAIKHSTGQGHPVKLVPYNPEYQDESVLWTESKDVGKGFRCIRMVNNIYLNFDAFHGDKDHGGIHDGTEIVLWKWCEGDNQRWKILPWILEQKLISEEDLNSAVDHHHHHH
glycan array binding signal (z-score) [1]: 1.99 | glycan array binding signal (z-score) (Gal(b1-3)GlcNAc6S): -0.739 | glycan array binding signal (z-score) [2]: -1.46 | glycan array binding signal (z-score) [3]: 0.403 | glycan array binding signal (z-score) [4]: 1.94 | glycan array binding signal (z-score) [5]: -1.39 | glycan array binding signal (z-score) [6]: -0.907 | glycan array binding signal (z-score) [7]: 0.174 | glycan array binding signal (z-score) [8]: 0.344 | glycan array binding signal (z-score) [9]: -0.756 | glycan array binding signal (z-score) [10]: -0.735 | glycan array binding signal (z-score) [11]: -0.858 | glycan array binding signal (z-score) (Gal(b1-4)Gal): 3.37 | glycan array binding signal (z-score) [12]: -0.663 | glycan array binding signal (z-score) [13]: -1.29 | glycan array binding signal (z-score) (Gal(b1-4)Glc): -0.608 | glycan array binding signal (z-score) (Gal(b1-4)Glc6S): 0.01 | glycan array binding signal (z-score) (Gal(b1-4)GlcNAc): -0.719 | glycan array binding signal (z-score) [14]: -1.6 | glycan array binding signal (z-score) (Gal(b1-4)GlcNAc(b1-2)Man): 1.59 | glycan array binding signal (z-score) [15]: -0.544 | glycan array binding signal (z-score) [16]: -0.998 | glycan array binding signal (z-score) [17]: -0.357 | glycan array binding signal (z-score) [18]: 0.177 | glycan array binding signal (z-score) [19]: -1.38 | glycan array binding signal (z-score) [20]: 0.253 | glycan array binding signal (z-score) [21]: 0.913 | glycan array binding signal (z-score) [22]: -0.232 | glycan array binding signal (z-score) [23]: 0.061 | glycan array binding signal (z-score) [24]: -0.553 | glycan array binding signal (z-score) [25]: -0.072 | glycan array binding signal (z-score) [26]: 0.507 | glycan array binding signal (z-score) [27]: -0.807 | glycan array binding signal (z-score) [28]: -1.21 | glycan array binding signal (z-score) [29]: -0.986 | glycan array binding signal (z-score) [30]: -0.049 | glycan array binding signal (z-score) [31]: 1.58 | glycan array binding signal (z-score) [32]: -0.799 | glycan array binding signal (z-score) [33]: -0.544 | glycan array binding signal (z-score) [34]: 0.849 | glycan array binding signal (z-score) [35]: -0.245 | glycan array binding signal (z-score) [36]: -0.283 | glycan array binding signal (z-score) [37]: -0.532 | glycan array binding signal (z-score) [38]: -0.276 | glycan array binding signal (z-score) [39]: 1.13
